Measurements taken from US20170049855A1 (NEW YORK UNIVERSITY, published 2017).

Assays:
[1] = biological target: T1, mouse GBA (endogenous, lung tissue) (mouse, UniProt P17439 20-515); assay: co-IP with anti-GBA antibody, detected with anti-PGRN antibody, lung of WT mice
T1 construct: Endogenous protein precipitated or detected with anti-GBA antibody; also called glucocerebrosidase
T1 sequence (looked up): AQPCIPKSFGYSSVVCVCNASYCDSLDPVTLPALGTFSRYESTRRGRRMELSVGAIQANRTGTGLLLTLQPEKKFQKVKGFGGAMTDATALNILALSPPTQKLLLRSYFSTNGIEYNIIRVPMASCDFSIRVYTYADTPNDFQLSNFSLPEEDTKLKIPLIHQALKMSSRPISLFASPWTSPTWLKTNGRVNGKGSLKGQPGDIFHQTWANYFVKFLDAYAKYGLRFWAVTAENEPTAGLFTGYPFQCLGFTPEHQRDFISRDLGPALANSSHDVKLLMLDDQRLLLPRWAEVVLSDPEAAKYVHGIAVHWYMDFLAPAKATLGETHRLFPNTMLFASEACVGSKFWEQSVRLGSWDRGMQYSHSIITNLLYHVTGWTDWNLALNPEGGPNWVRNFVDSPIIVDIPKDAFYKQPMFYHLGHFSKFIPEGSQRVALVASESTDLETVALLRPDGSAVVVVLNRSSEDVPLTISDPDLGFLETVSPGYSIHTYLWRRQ

[2] = biological target: T1, mouse GBA (endogenous, lung tissue); assay: co-IP with anti-GBA antibody, probed with anti-PGRN antibody, mouse lung lysate
[3] = biological target: T1, mouse GBA (endogenous, lung tissue); assay: co-immunoprecipitation from WT mouse lung lysate, IP: GBA or mIgG, IB: PGRN and IB: GBA

binding [1]: binds
binding [2]: binds
binding [3]: binds
Substance: mouse PGRN (endogenous, lung tissue of WT mice) (ligand)

Results are given in words; binding and its absence hold for the method and conditions named. In cells and extracts the contact can be indirect. A result given as binding can be weak or reduced; the word gives no strength.
